Source: PMC8304009
These are yes or no findings as the source states them, for the method shown. In cells and extracts the contact can be indirect. Some binding calls cover weakened binding; strength is not graded here. Tags and fused reporters may be left off the sequences shown.

Protein sequences, listed by entry. Tags and fused reporters are not part of them.
UniProt P51946: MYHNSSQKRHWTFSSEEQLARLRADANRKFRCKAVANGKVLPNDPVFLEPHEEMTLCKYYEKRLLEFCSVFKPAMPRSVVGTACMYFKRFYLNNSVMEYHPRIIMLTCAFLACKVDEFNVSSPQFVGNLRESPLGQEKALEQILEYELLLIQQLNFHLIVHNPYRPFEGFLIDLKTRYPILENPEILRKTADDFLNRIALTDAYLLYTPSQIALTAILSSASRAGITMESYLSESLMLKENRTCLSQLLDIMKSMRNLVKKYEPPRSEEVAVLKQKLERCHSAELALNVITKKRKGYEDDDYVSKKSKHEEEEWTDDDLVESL
UniProt P50750: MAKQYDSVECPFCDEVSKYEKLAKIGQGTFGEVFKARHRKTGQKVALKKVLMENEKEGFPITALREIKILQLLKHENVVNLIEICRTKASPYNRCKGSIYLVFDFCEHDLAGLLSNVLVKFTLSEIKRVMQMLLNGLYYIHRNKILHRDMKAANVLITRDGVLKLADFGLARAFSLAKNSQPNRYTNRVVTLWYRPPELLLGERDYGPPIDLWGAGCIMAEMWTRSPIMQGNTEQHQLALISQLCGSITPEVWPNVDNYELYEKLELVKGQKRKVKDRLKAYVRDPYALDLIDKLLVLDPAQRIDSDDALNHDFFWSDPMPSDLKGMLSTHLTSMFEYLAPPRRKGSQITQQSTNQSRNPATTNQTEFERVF
UniProt P51948: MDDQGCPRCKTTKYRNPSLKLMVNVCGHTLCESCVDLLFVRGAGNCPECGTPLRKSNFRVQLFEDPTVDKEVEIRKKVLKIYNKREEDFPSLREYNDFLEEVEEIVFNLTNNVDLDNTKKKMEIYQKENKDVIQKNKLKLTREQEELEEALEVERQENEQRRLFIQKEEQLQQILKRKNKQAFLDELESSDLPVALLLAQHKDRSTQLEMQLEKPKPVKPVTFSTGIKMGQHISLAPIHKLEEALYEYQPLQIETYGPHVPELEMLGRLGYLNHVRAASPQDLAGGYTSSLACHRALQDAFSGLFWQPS
UniProt P50613: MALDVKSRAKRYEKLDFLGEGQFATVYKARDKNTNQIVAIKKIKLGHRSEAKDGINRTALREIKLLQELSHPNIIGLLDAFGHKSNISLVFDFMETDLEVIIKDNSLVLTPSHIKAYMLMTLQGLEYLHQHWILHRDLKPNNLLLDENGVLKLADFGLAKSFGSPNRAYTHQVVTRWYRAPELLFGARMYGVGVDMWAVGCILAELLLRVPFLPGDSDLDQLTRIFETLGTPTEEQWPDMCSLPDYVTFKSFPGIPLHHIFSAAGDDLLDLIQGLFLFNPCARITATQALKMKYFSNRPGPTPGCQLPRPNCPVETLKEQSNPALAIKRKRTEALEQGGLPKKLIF

Experiments:
Experiment in all cases: co-IP; transiently transfected HEK293T cells; lysis buffer 20 mM Tris-Cl pH 7.5, 0.5% NP-40, 150 mM NaCl; immunoprecipitation with anti-Flag antibody and protein G-agarose at 4 °C; Western blot
[1] = target: Flag-tagged cyclin H (human) (UniProt P51946)
CDK9 (human) = CDK9 (human) (UniProt P50750)
[2] = target: Flag-tagged MNAT1 (human) (UniProt P51948)
Flag-tagged CDK7 (human) = Flag-tagged CDK7 (human) (UniProt P50613)

Measured: binding

B1: HA-OGFOD1 (protein, UniProt Q8N543 1-542)
chain: MNGKRPAEPGPARVGKKGKKEVMAEFSDAVTEETLKKQVAEAWSRRTPFSHEVIVMDMDPFLHCVIPNFIQSQDFLEGLQKELMNLDFHEKYNDLYKFQQSDDLKKRREPHISTLRKILFEDFRSWLSDISKIDLESTIDMSCAKYEFTDALLCHDDELEGRRIAFILYLVPPWDRSMGGTLDLYSIDEHFQPKQIVKSLIPSWNKLVFFEVSPVSFHQVSEVLSEEKSRLSISGWFHGPSLTRPPNYFEPPIPRSPHIPQDHEILYDWINPTYLDMDYQVQIQEEFEESSEILLKEFLKPEKFTKVCEALEHGHVEWSSRGPPNKRFYEKAEESKLPEILKECMKLFRSEALFLLLSNFTGLKLHFLAPSEEDEMNDKKEAETTDITEEGTSHSPPEPENNQMAISNNSQQSNEQTDPEPEENETKKESSVPMCQGELRHWKTGHYTLIHDHSKAEFALDLILYCGCEGWEPEYGGFTSYIAKGEDEELLTVNPESNSLALVYRDRETLKFVKHINHRSLEQKKTFPNRTGFWDFSFIYYE
binds: all assays above
